Source: patent publication US9241930B2, “Compositions and methods for treating viral diseases” (NovaDrug, LLC, priority 2011, dated 2016)
At least one compound was matched to its structure with a doubt left.

Legend:
Assay type in all cases: cell-based
Settings in all cases: 1.25 μM; 72 h post-infection
[1] = test system: HIV-Bal; assay: HIV reverse transcription assay (2LTR circles, real time PCR) in PBMC
[2] = test system: HIV-Bal; assay: HIV genomic DNA integration (ALU-PCR / real time PCR) in PBMC
[3] = test system: HIV-Bal; assay: HIV transcription (real time RT-PCR of Rev, Gag, Env) in PBMC

Cc1cn([C@H]2C[C@H](N=[N+]=[N-])[C@@H](CO)O2)c(=O)[nH]c1=O [AZT, Azidothymidine]
significantly inhibits: inhibition of HIV reverse transcription (2LTR circles) [1] | inhibition of HIV viral integration [2] | inhibition of HIV transcription (Rev, Gag, Env) [3]
